Source: PubChem BioAssay AID504467 (National Center for Advancing Translational Sciences (NCATS), 2011)
Out of some 330,000 compounds screened, about 7,700 (2.3%) were called active. This list was built around the results that the source calls inconclusive (neither active nor inactive); the mix of calls is not that of the screen. The call rests on the fitted dose curve; in most records, active means well fitted inhibition curve with a large enough effect; inconclusive means small, poorly fitted or top-dose-only effect, or effect the other way; inactive means flat fitted curve, though single readings scatter. Potencies beside an inconclusive call are fits to weak or partial responses and may not hold up.

assay: qHTS screen for small molecules that inhibit ELG1-dependent DNA repair in human embryonic kidney (HEK293T) cells expressing luciferase-tagged ELG1; settings: HEK293T ELG1-luciferase reporter, luminescence, 16 h, DNA damage induced by 5-fluorouridine; series mostly up to 46.1 µM; further: nearly all actives have a fitted effect of over 55% in size
Outline: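 DMSO vehicle served as the neutral condition. Each well held 2,000 cells given 5-fluorouridine plus compound; after 16 hr at 37 °C/5% CO2, ONE-Glo was added and luciferase measured 30 min later.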
Potency means the concentration at half of the fitted maximal effect.

Structure (SMILES)	Potency
O=C(NC1CCCCNC1=O)c1ccc(Cl)cc1 (stereo unspecified)	inconclusive: 18.4 µM [activator, single point]
Cc1ccc(NN=C2c3ccccc3-c3ccccc32)cc1	inconclusive: 16.4 µM [activator, partial curve]
Cc1ccc(NC(=O)c2cccc(Cl)c2)nc1	inconclusive: 20.6 µM [activator, partial curve]
Cc1cc(NC(=O)CSc2ccc(-c3nc4cc(C)c(C)cc4[nH]3)cn2)no1	inconclusive: 20.6 µM [activator, partial curve]
CCCC(=O)NC(c1ccc(C(C)C)cc1)c1ccc2cccnc2c1O (stereo unspecified)	inactive
CCOc1cccc(CN2CCCC(CCC(=O)NCc3ccccc3F)C2)c1O (stereo unspecified)	inactive
N#Cc1c(Nc2ccc(F)cc2)sc(C(=O)c2ccccc2)c1N	inconclusive: 29.1 µM [inhibitor, single point]
c1ccc(-c2cc3nccc(-c4ccccn4)n3n2)cc1	inconclusive: 8.2 µM [activator, partial curve]
Cc1cc(C)c(S(=O)(=O)/N=C2\C=C(Nc3ccc(C(=O)O)cc3)C(=O)c3ccccc32)c(C)c1	active: 3.26 µM
COc1ccc(-n2c(SCC(=O)Nc3nccs3)nc3c(c2=O)SC(C)C3)cc1 (stereo unspecified)	inconclusive: 29.1 µM [inhibitor, single point]
Cc1cc(NC(=O)COC(=O)C2CC(=O)N(c3cccc(Cl)c3)C2)no1 (stereo unspecified)	inconclusive: 7.3 µM [activator, single point]
O=C(c1cccs1)N1CCC(c2nc3c(nnn3Cc3ccccc3Cl)c(=O)[nH]2)CC1	inactive
COc1ccc(CCNC(=O)C2CCN(C(=O)c3ccc(C(C)(C)C)cc3)CC2)cc1OC	inconclusive: 8.2 µM [activator, partial curve, poor fit]
C=CCO/N=C(/C)c1c(O)c(CC)c(-c2ccccc2)n(-c2ccccc2)c1=O	inactive
Cc1ccc(Cn2cc(SCC(=O)Nc3nccs3)c3ccccc32)cc1	inconclusive: 11.6 µM [activator, partial curve]
CC(C)OC(=O)c1c(NS(=O)(=O)c2ccccc2)sc2c1CCCC2	inactive
O=c1oc2c(CN3CCCCC3)c(O)ccc2cc1-c1nc2ccccc2[nH]1	inconclusive: 20.6 µM [activator, partial curve]
Cn1nnc2cc(C(=O)N3CCC(c4ccccc4)C3)ccc21 (stereo unspecified)	inconclusive: 17.8 µM [activator, partial curve, poor fit]
COc1ccc(NC(=O)COC(=O)CCSc2ccccc2)cc1	inconclusive: 23.1 µM [activator, single point]
CCOc1cc(/C=N\Nc2ncc(F)c(N3CCOCC3)n2)ccc1Oc1nc(Cl)ncc1F	active: 23.1 µM
Cc1ccc(CCNC(=O)c2nn(C)c3c2CS(=O)(=O)c2ccccc2-3)cc1	inconclusive: 16.4 µM [inhibitor, partial curve, poor fit]
O=C(c1cc2c(s1)CCCC2)N1CCN(S(=O)(=O)c2ccccc2C(F)(F)F)CC1	inconclusive: 29.1 µM [inhibitor, single point]

Structure (SMILES)	Potency
O=[N+]([O-])c1ccc(CNc2cccc(Cl)c2)s1	inconclusive: 11.6 µM [inhibitor, partial curve, poor fit]
COc1cccc(/C=C/C(=O)OCC(=O)Nc2ccc3[nH]c(=O)[nH]c3c2)c1OC	inconclusive: 29.1 µM [inhibitor, single point]
CCOc1ccc(NC(=O)Nc2ccc3nsnc3c2)cc1	inconclusive: 0.13 µM [inhibitor, partial curve, poor fit]
Cc1csc(NC(=O)c2ccc(S(=O)(=O)N3CCN(C)CC3)cc2)n1	inconclusive: 23.1 µM [activator, single point]
COc1ccc(C2OC(=O)CC2C(=O)NCc2ccccc2Cl)cc1OC (stereo unspecified)	inactive
c1ccc(OCCn2c(-c3ccco3)nc3ccccc32)cc1	inconclusive: 20.6 µM [activator, single point]
CCC(=O)N1CCCc2cc(S(=O)(=O)N3CCN(c4ccccc4F)CC3)ccc21	inconclusive: 2.91 µM [inhibitor, full curve]
COc1cc(Cl)ccc1NC(=S)N(CCN1CCOCC1)C1CCN(C(C)=O)CC1	inactive
COc1ccc(CN2CCN(Cc3ccon3)CC2CCO)c(C)c1C (stereo unspecified)	inactive
CCCn1c(SCC(=O)Nc2nc3c(s2)CCCC3)nc2c1c(=O)n(C)c(=O)n2C	inconclusive: 2.59 µM [inhibitor, partial curve, poor fit]
CCCN(CC(=O)Nc1ccc(F)c(F)c1F)C(=O)Cc1ccc(S(=O)(=O)N2CCOCC2)s1	inactive
COc1ccc(C=NNC(=O)c2ccccc2NS(=O)(=O)c2cccs2)cc1O	inconclusive: 16.4 µM [activator, partial curve, poor fit]
CCOc1ccc(C(C(=O)NCC2CCCO2)N(Cc2ccccc2)C(=O)c2snc(C(N)=O)c2N)cc1 (stereo unspecified)	inconclusive: 7.3 µM [inhibitor, partial curve]
COc1cc(C(=O)OCC(=O)Nc2ccccc2C(=O)NC2CC2)c([N+](=O)[O-])cc1OC	inconclusive: 32.6 µM [inhibitor, partial curve, poor fit]
c1ccc2oc(Cc3ccc(Cc4nc5ccccc5o4)cc3)nc2c1	inconclusive: 23.1 µM [inhibitor, single point]
S=c1[nH]nc(-c2cccs2)n1/N=C/c1cn(-c2ccccc2)nc1-c1cccs1	inconclusive: 2.59 µM [activator, partial curve]
O=C(Nc1cccc(O)c1)C(=O)Nc1ccccn1	inconclusive: 0.82 µM [activator, full curve]
COc1ccc(S(=O)(=O)Nc2cccc(/C=C/C(=O)O)c2)cc1	inconclusive: 32.6 µM [activator, partial curve, poor fit]
Cc1cccc(NC(=S)NC(=O)c2cccs2)n1	inconclusive: 20.6 µM [activator, single point]
CCOC(=O)C1C(=O)NC(c2ccccc2)=NC1c1cccc(Br)c1 (stereo unspecified)	inconclusive: 18.3 µM [inhibitor, partial curve, poor fit]
C=CCn1c(SCC(=O)NCCOC)nnc1-c1cc2c(s1)CCC(CC)C2 (stereo unspecified)	inconclusive: 20.6 µM [inhibitor, single point]
O=C(NCCc1ccccc1)c1ccco1	inconclusive: 18.4 µM [activator, partial curve]

Among those listed so far, 2 contain a furan ring, fused or not:
Structure (SMILES)	Potency
c1ccc(OCCn2c(-c3ccco3)nc3ccccc32)cc1	inconclusive: 20.6 µM [activator, single point]
O=C(NCCc1ccccc1)c1ccco1	inconclusive: 18.4 µM [activator, partial curve]

Later entries

Structure (SMILES)	Potency
Cc1cccc(NC(=O)CCc2nc3sc4c(c3c(=O)[nH]2)CCCC4)n1	inconclusive: 12.6 µM [inhibitor, single point]
O=C(NCCOc1ccccc1Cl)C(=O)c1c[nH]c2ccccc12	inactive
CCn1c(-c2csc3c2CCCC3)n[nH]c1=S	inconclusive: 18.4 µM [activator, partial curve, poor fit]
Cc1nc(NS(=O)(=O)c2ccccc2)sc1NC(=O)Nc1ccccc1	inactive
COc1cc2c(cc1OC)-c1cc(N3CCCc4ccccc43)nc(=O)n1CC2	inconclusive: 11.6 µM [inhibitor, partial curve, poor fit]
CC(=O)N1CCN(S(=O)(=O)c2cccc(C(=O)OCc3ccc(C(C)(C)C)cc3)c2)CC1	inactive
CCNC(=S)NNC(=O)c1csc2ccccc12	inactive
CC1CCCCC1NC(=O)CN1CCC(O)(c2ccc3c(c2)OCO3)CC1 (stereo unspecified)	inconclusive: 32.6 µM [inhibitor, partial curve, poor fit]
CSc1ccc(NC(=O)NCCCN2CCN(c3ccccc3F)CC2)cc1	inconclusive: 29.1 µM [inhibitor, single point]
CCOC(=O)C1=C(c2ccccc2)NC(=O)NC1c1cc(OC)c(O)c([N+](=O)[O-])c1 (stereo unspecified)	inconclusive: 25.1 µM [activator, single point]
Cc1cc(NC(=O)c2ccccc2[N+](=O)[O-])ccc1Br	inconclusive: 20.6 µM [activator, partial curve]
CCN(CC)S(=O)(=O)c1ccc(Cl)c(C(=O)NCC2CCCO2)c1 (stereo unspecified)	inactive
O=C(CCCCCN1C(=O)c2ccccc2C1=O)Nc1ccc(S(=O)(=O)N2CCCCC2)cc1	inconclusive: 29.1 µM [inhibitor, single point]
COc1ccc(NC(=O)CN(C)C(=O)c2cc(C)on2)cc1	inactive
CCCn1c(=S)[nH]c2cc(C(=O)N3CCN(c4ccccc4OC)CC3)ccc2c1=O	inconclusive: 23.1 µM [inhibitor, partial curve, poor fit]
CC(C)C(=O)OC1CCS(=O)(=O)c2sccc21 (stereo unspecified)	inactive
COc1ccc(NC(=O)C2CCCN(S(=O)(=O)c3c(C)n[nH]c3C)C2)c(OC)c1 (stereo unspecified)	inconclusive: 29.1 µM [inhibitor, single point]
COc1ccc(/C=C/C(=O)c2ccoc2)cc1	inconclusive: 31.6 µM [activator, single point]
Cc1cc(NC(=O)CCN2C(=O)C3C4CCC(C4)C3C2=O)c(C)cc1Br (stereo unspecified)	inactive
Cc1cccc(/C=C/c2nc3ccccc3c(=O)n2Cc2ccccc2)c1	inconclusive: 25.9 µM [inhibitor, single point]
Cc1ccccc1-n1c(SCC(=O)c2cc(C)n(C)c2C)nnc1-c1cccnc1	inconclusive: 29.1 µM [inhibitor, single point]
Cc1ccc(N/C=C/C(=O)c2ccco2)c(O)c1	inconclusive: 14.6 µM [activator, partial curve]

Individual results from the entries so far.
Potency with COc1ccc(NC(=O)C2CCCN(S(=O)(=O)c3c(C)n[nH]c3C)C2)c(OC)c1 (stereo unspecified) reads inconclusive: 29.1 µM [inhibitor, single point]
Potency with Cc1cc(NC(=O)c2ccccc2[N+](=O)[O-])ccc1Br reads inconclusive: 20.6 µM [activator, partial curve]
